Measurements from publication PMC7545706.

The chains behind the UniProt entries cited, without tags or fusion partners.
UniProt P04020: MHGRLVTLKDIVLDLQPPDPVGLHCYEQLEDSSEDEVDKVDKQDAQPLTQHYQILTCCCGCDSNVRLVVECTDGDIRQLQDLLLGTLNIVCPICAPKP

Target: Flag-HPV 11E7 (human papillomavirus type 11) (UniProt P04020)
Test: affinity purification with mass spectrometry; HaCaT cells stably expressing Flag-HPV 11E7, transfected with poly(dA:dT) for 6 hrs; lysates immunoprecipitated with antibody against the Flag tag; Orbitrap Elite

For “IFI16 (endogenous, HaCaT) (from UniProt Q16666-1 1-785)”, the binding was “binds”.

In the case of “TRIM21 (endogenous, HaCaT) (from UniProt P19474-1 1-475)”, the binding is reported as “binds”.

No constants are given. Whether binding was seen depends on the method and setting. Binding seen in cells or lysates may run through a third protein. A yes stands for co-enrichment or nearness to the bait. Other partners may have been found.
